Experimental data as given in article PMC9091245.

Molecular target: T1, family with sequence similarity 64, member A (FAM64A) (human) (UniProt Q9BSJ6)
T1 sequence: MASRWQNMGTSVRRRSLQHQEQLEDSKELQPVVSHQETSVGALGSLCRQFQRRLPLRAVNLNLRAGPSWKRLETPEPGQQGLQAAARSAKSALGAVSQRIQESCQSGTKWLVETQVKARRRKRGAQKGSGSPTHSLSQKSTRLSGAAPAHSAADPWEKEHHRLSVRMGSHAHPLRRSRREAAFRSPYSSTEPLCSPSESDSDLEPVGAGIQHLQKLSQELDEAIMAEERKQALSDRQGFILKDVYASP
Assay: affinity purification with mass spectrometry; Co-IP of FAM64A from HNSCC cells; immunocomplexes separated by SDS-PAGE and silver stained; candidate bands digested with trypsin and identified by LC-MS/MS

binding: binds
B1: forkhead box protein M1 (FOXM1) (protein, UniProt Q08050 1-763)
chain: MKTSPRRPLILKRRRLPLPVQNAPSETSEEEPKRSPAQQESNQAEASKEVAESNSCKFPAGIKIINHPTMPNTQVVAIPNNANIHSIITALTAKGKESGSSGPNKFILISCGGAPTQPPGLRPQTQTSYDAKRTEVTLETLGPKPAARDVNLPRPPGALCEQKRETCADGEAAGCTINNSLSNIQWLRKMSSDGLGSRSIKQEMEEKENCHLEQRQVKVEEPSRPSASWQNSVSERPPYSYMAMIQFAINSTERKRMTLKDIYTWIEDHFPYFKHIAKPGWKNSIRHNLSLHDMFVRETSANGKVSFWTIHPSANRYLTLDQVFKPLDPGSPQLPEHLESQQKRPNPELRRNMTIKTELPLGARRKMKPLLPRVSSYLVPIQFPVNQSLVLQPSVKVPLPLAASLMSSELARHSKRVRIAPKVLLAEEGIAPLSSAGPGKEEKLLFGEGFSPLLPVQTIKEEEIQPGEEMPHLARPIKVESPPLEEWPSPAPSFKEESSHSWEDSSQSPTPRPKKSYSGLRSPTRCVSEMLVIQHRERRERSRSRRKQHLLPPCVDEPELLFSEGPSTSRWAAELPFPADSSDPASQLSYSQEVGGPFKTPIKETLPISSTPSKSVLPRTPESWRLTPPAKVGGLDFSPVQTSQGASDPLPDPLGLMDLSTTPLQSAPPLESPQRLLSSEPLDLISVPFGNSSPSDIDVPKPGSPEPQVSGLAANRSLTEGLVLDTMNDSLSKILLDISFPGLDEDPLGPDNINWSQFIPELQ

These are yes or no findings as the source states them, for the method shown. Binding seen in cells or lysates may run through a third protein. A yes stands for co-enrichment or nearness to the bait. Other partners may have been found.
